# Record: PubChem BioAssay AID1259254 (NCATS, 2017)
# Screen: 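Finding genes that stop cells copying their DNA twice in one cycle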 (primary screen)
# Cells: human HCT116 colorectal cancer cells
# Reagent: single siRNA against human genes
# Time to read-out: 3 days
# Read-out: 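Nuclei stained with Hoechst and imaged; cell-cycle phase assigned by DNA content; G2 share scaled per plate, non-targeting siRNA 0%, GMNN siRNA 100%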
# Reading the numbers: G2 robust z-score and G2 cells, % of GMNN control: higher = more G2 cells, more excess DNA replication; raw share of cells in G2: higher = larger share of cells with G2 DNA content
# Hit rule: 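An siRNA counts as active if its G2 robust z-score lies at least 5 MADs above the screen median; here such calls match roughly 38% of GMNN control or more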
# Shown is one part, drawn at random, of about 59,000 deposited reagents. Over the whole deposit, about 1,550 (2.6%) were called active. 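G2 share is only a proxy for re-replication; each gene was hit by three separate siRNAs, and active genes were retested.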 Raw values are not corrected between plates. The numbers tell different reagents against one gene apart. Reagent sequences are not shown. Not given: the amount of reagent.
The first 2 entries, to show the layout:
target,reagent,G2 robust z-score,"G2 cells, % of GMNN control",raw share of cells in G2 (%),outcome
CALHM1 (calcium homeostasis modulator 1),1,-0.25,1.21,4.02,inactive
CALHM1 (calcium homeostasis modulator 1),2,0.563,6.93,5.5,inactive

The list itself, from the first entry:
target,reagent,G2 robust z-score,"G2 cells, % of GMNN control",raw share of cells in G2 (%),outcome
CALHM1 (calcium homeostasis modulator 1),1,-0.25,1.21,4.02,inactive
CALHM1 (calcium homeostasis modulator 1),2,0.563,6.93,5.5,inactive
CALHM1 (calcium homeostasis modulator 1),3,5.27,40.1,16,active
MAPT (microtubule associated protein tau),1,0.876,9.13,8.86,inactive
MAPT (microtubule associated protein tau),2,-0.916,-3.48,2.85,inactive
MAPT (microtubule associated protein tau),3,0.804,8.63,6.47,inactive
RFLNA (refilin A),1,-0.381,0.286,3.17,inactive
RFLNA (refilin A),2,0.00776,3.02,4.84,inactive
RFLNA (refilin A),3,-0.937,-3.63,1.79,inactive
SRPRB (SRP receptor subunit beta),1,0.813,8.69,9.24,inactive
SRPRB (SRP receptor subunit beta),2,-1.49,-7.5,1.5,inactive
SRPRB (SRP receptor subunit beta),3,2.76,22.4,12.3,inactive
ERBIN (erbb2 interacting protein),1,0.28,4.94,6.29,inactive
ERBIN (erbb2 interacting protein),2,-0.833,-2.89,3.08,inactive
ERBIN (erbb2 interacting protein),3,1.09,10.7,6.4,inactive
"RAB8B (RAB8B, member RAS oncogene family)",1,0.515,6.59,8.94,inactive
"RAB8B (RAB8B, member RAS oncogene family)",2,1.17,11.2,8.39,inactive
"RAB8B (RAB8B, member RAS oncogene family)",3,1.04,10.3,7.75,inactive
NR2F6 (nuclear receptor subfamily 2 group F member 6),1,0.165,4.13,5.32,inactive
NR2F6 (nuclear receptor subfamily 2 group F member 6),2,-0.334,0.62,5.89,inactive
NR2F6 (nuclear receptor subfamily 2 group F member 6),3,1.96,16.8,10.3,inactive
"CPXM1 (carboxypeptidase X, M14 family member 1)",1,0.154,4.05,6.97,inactive
"CPXM1 (carboxypeptidase X, M14 family member 1)",2,-0.2,1.56,5.46,inactive
"CPXM1 (carboxypeptidase X, M14 family member 1)",3,-0.791,-2.6,2.94,inactive
TRUB2 (TruB pseudouridine synthase family member 2),1,0.518,6.61,6.38,inactive
TRUB2 (TruB pseudouridine synthase family member 2),2,-1.1,-4.81,2.73,inactive
TRUB2 (TruB pseudouridine synthase family member 2),3,-1.08,-4.64,1.79,inactive
MSN (moesin),1,-0.387,0.244,3.28,inactive
MSN (moesin),2,0.6,7.19,8.14,inactive
MSN (moesin),3,2.61,21.3,13.9,inactive
